Results are given in words; binding and its absence hold for the method and conditions named. In cells and extracts the contact can be indirect. Some entries that bind do so weakly or less than the wild type. For some assays here: Tags and fused reporters may be left off the sequences shown.

For test [1], the target named is T1, Flag-ZNRF1 (zinc and ring finger 1), transiently overexpressed in A549 cells (UniProt Q8ND25).
T1 sequence: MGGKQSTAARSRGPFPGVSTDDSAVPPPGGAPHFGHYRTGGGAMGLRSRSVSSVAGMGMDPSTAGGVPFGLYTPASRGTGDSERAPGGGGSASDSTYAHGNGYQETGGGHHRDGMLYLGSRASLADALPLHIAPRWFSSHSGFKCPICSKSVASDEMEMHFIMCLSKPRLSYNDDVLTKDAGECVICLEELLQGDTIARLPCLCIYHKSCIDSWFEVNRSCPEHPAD
As to the kind of experiment: co-IP; A549 cells expressing empty vector or Flag-ZNRF1, serum-starved overnight, 100 ng/mL EGF for the indicated times; reciprocal immunoprecipitations; lysis buffer 150 mM NaCl, 50 mM Tris-HCl pH 7.5, 2 mM EDTA, 1% Triton X-100, 0.5% NP-40, 10% glycerol.

In test [2] the target is epidermal growth factor receptor (EGFR), endogenous in A549 cells (human (endogenous in A549)) (UniProt P00533). Described as above.
Test [3] shares this target. As to the kind of experiment: proximity ligation; A549 cells transfected with Myc-tagged ZNRF1 for 48 h, fixed and permeabilised; antibodies against EGFR and Myc; Duolink In Situ Detection Reagent Red.
The target in test [4] is Myc-tagged full-length EGFR, expressed in HEK293T cells (UniProt P00533). As to the kind of experiment: co-IP; HEK293T cells co-transfected for 48 h with Myc-tagged EGFR (full-length or truncated) and Flag-tagged ZNRF1 (full-length or truncated); immunoprecipitation and immunoblotting with the indicated antibodies.
The target of test [5] is epidermal growth factor receptor (EGFR), endogenous in A549 cells (human (endogenous in A549)) (UniProt P00533). Description: co-IP; endogenous proteins of A549 cells, serum-starved overnight, with and without 100 ng/mL EGF; EGFR immunoprecipitated; also in cells expressing shLuc or shCBL (Figure 5E); lysis buffer 150 mM NaCl, 50 mM Tris-HCl pH 7.5, 2 mM EDTA, 1% Triton X-100, 0.5% NP-40, 10% glycerol.

“epidermal growth factor receptor (EGFR), endogenous in A549 cells (from UniProt P00533 25-1210)”: the binding entry in test [1] is recorded as “binds”.

B1: Flag-ZNRF1 (zinc and ring finger 1), transiently overexpressed in A549 cells (enzyme, UniProt Q8ND25 1-227)
chain: MGGKQSTAARSRGPFPGVSTDDSAVPPPGGAPHFGHYRTGGGAMGLRSRSVSSVAGMGMDPSTAGGVPFGLYTPASRGTGDSERAPGGGGSASDSTYAHGNGYQETGGGHHRDGMLYLGSRASLADALPLHIAPRWFSSHSGFKCPICSKSVASDEMEMHFIMCLSKPRLSYNDDVLTKDAGECVICLEELLQGDTIARLPCLCIYHKSCIDSWFEVNRSCPEHPAD
For B1, the binding result in test [2] was “binds”.

B2: Myc-tagged ZNRF1, expressed in A549 cells (enzyme, UniProt Q8ND25 1-227)
chain: MGGKQSTAARSRGPFPGVSTDDSAVPPPGGAPHFGHYRTGGGAMGLRSRSVSSVAGMGMDPSTAGGVPFGLYTPASRGTGDSERAPGGGGSASDSTYAHGNGYQETGGGHHRDGMLYLGSRASLADALPLHIAPRWFSSHSGFKCPICSKSVASDEMEMHFIMCLSKPRLSYNDDVLTKDAGECVICLEELLQGDTIARLPCLCIYHKSCIDSWFEVNRSCPEHPAD
As for B2, the binding entry in test [3] is “binds”.

B3: Flag-tagged full-length ZNRF1, expressed in HEK293T cells (enzyme, UniProt Q8ND25 1-227)
chain: MGGKQSTAARSRGPFPGVSTDDSAVPPPGGAPHFGHYRTGGGAMGLRSRSVSSVAGMGMDPSTAGGVPFGLYTPASRGTGDSERAPGGGGSASDSTYAHGNGYQETGGGHHRDGMLYLGSRASLADALPLHIAPRWFSSHSGFKCPICSKSVASDEMEMHFIMCLSKPRLSYNDDVLTKDAGECVICLEELLQGDTIARLPCLCIYHKSCIDSWFEVNRSCPEHPAD
For the molecule B3, the binding entry in test [4] is listed as “binds”.

B4: ZNRF1, endogenous in A549 cells (enzyme, UniProt Q8ND25 1-227)
chain: MGGKQSTAARSRGPFPGVSTDDSAVPPPGGAPHFGHYRTGGGAMGLRSRSVSSVAGMGMDPSTAGGVPFGLYTPASRGTGDSERAPGGGGSASDSTYAHGNGYQETGGGHHRDGMLYLGSRASLADALPLHIAPRWFSSHSGFKCPICSKSVASDEMEMHFIMCLSKPRLSYNDDVLTKDAGECVICLEELLQGDTIARLPCLCIYHKSCIDSWFEVNRSCPEHPAD
As for B4, in test [5], the binding entry is given as “binds”.
